Experiment: general procedure: solution-phase peptide synthesis; EDC.HCl/HOBt
[1] = late stage modification step, HPLC, hydrochloride
[2] = late stage modification step, hydrochloride
[3] = coupling step, HPLC, hydrochloride
[4] = late stage modification step, HPLC, hydrochloride, run 1
[5] = late stage modification step, HPLC, hydrochloride, run 2

Boc-D-Phe-D-Phe-D-Leu-D-Lys(Boc)-α-Boc-Pic-OH
crude HPLC purity [1]: 80.8% | step yield [2]: 99.3%

Boc-D-Phe-D-Phe-D-Leu-D-Lys(Boc)-α-Boc-Pic-OMe
crude HPLC purity [3]: 98.6%

Cbz-D-Phe-D-Leu-D-Lys(Boc)-α-Boc-Pic-OMe
crude HPLC purity [3]: 97.6%

D-Phe-D-Leu-D-Lys(Boc)-α-Boc-Pic-OMe
crude HPLC purity [1]: 97.3%

D-Phe-D-Phe-D-Leu-D-Lys-Pic
crude HPLC purity [4]: 99.7% | crude HPLC purity [5]: 95.4% | crude HPLC purity (late stage modification step, HPLC, hydrochloride, run 3): 93.1% | crude HPLC purity (late stage modification step, HPLC, hydrochloride, run 4): 95.2% | crude HPLC purity (late stage modification step, HPLC, hydrochloride, run 5): 79.2% | step yield [2]: 96.4%

D-Phe-D-Phe-D-Leu-D-Lys-Pic-OMe hydrochloride
crude HPLC purity (late stage modification step, HPLC, TFA salt): 95.2% | crude HPLC purity [4]: 98.2% | crude HPLC purity [5]: 95.4% | step yield (late stage modification step, TFA salt): 93.0% | step yield (late stage modification step, hydrochloride, run 1): 99.0% | step yield (late stage modification step, hydrochloride, run 2): 96.7% | final HPLC purity (purification step, HPLC, hydrochloride): 99.2% | step yield (purification step, hydrochloride): 80%

— patent US20170183307 (published 2017)
